The results in this text go back to publication PMC11687841.

Amino acid sequences for entries named in this document (tags omitted). Residues count along the entry.
UniProt O43707: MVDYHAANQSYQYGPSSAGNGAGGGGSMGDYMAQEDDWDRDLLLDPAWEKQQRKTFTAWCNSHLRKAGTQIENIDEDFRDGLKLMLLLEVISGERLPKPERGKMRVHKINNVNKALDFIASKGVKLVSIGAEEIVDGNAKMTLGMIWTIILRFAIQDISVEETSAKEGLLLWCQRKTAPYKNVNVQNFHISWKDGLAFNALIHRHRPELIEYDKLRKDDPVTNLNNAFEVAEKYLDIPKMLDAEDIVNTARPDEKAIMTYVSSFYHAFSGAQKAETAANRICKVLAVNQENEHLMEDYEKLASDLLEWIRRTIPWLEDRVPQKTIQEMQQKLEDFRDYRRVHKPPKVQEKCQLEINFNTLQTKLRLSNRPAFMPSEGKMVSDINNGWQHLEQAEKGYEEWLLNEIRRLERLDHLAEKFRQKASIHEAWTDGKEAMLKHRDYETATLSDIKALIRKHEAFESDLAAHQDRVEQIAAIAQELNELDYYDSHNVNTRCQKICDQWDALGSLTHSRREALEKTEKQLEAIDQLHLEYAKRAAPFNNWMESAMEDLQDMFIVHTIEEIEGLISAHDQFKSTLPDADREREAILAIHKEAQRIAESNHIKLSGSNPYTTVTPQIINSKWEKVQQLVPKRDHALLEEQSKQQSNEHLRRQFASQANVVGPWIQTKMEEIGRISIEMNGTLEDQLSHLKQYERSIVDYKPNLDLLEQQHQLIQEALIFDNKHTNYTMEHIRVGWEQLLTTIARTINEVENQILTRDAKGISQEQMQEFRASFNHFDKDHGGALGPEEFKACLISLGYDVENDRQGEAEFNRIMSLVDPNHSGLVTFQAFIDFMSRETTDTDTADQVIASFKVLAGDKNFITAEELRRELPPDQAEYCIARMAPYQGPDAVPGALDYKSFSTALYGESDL
UniProt Q7TMA5, residues 28-4743: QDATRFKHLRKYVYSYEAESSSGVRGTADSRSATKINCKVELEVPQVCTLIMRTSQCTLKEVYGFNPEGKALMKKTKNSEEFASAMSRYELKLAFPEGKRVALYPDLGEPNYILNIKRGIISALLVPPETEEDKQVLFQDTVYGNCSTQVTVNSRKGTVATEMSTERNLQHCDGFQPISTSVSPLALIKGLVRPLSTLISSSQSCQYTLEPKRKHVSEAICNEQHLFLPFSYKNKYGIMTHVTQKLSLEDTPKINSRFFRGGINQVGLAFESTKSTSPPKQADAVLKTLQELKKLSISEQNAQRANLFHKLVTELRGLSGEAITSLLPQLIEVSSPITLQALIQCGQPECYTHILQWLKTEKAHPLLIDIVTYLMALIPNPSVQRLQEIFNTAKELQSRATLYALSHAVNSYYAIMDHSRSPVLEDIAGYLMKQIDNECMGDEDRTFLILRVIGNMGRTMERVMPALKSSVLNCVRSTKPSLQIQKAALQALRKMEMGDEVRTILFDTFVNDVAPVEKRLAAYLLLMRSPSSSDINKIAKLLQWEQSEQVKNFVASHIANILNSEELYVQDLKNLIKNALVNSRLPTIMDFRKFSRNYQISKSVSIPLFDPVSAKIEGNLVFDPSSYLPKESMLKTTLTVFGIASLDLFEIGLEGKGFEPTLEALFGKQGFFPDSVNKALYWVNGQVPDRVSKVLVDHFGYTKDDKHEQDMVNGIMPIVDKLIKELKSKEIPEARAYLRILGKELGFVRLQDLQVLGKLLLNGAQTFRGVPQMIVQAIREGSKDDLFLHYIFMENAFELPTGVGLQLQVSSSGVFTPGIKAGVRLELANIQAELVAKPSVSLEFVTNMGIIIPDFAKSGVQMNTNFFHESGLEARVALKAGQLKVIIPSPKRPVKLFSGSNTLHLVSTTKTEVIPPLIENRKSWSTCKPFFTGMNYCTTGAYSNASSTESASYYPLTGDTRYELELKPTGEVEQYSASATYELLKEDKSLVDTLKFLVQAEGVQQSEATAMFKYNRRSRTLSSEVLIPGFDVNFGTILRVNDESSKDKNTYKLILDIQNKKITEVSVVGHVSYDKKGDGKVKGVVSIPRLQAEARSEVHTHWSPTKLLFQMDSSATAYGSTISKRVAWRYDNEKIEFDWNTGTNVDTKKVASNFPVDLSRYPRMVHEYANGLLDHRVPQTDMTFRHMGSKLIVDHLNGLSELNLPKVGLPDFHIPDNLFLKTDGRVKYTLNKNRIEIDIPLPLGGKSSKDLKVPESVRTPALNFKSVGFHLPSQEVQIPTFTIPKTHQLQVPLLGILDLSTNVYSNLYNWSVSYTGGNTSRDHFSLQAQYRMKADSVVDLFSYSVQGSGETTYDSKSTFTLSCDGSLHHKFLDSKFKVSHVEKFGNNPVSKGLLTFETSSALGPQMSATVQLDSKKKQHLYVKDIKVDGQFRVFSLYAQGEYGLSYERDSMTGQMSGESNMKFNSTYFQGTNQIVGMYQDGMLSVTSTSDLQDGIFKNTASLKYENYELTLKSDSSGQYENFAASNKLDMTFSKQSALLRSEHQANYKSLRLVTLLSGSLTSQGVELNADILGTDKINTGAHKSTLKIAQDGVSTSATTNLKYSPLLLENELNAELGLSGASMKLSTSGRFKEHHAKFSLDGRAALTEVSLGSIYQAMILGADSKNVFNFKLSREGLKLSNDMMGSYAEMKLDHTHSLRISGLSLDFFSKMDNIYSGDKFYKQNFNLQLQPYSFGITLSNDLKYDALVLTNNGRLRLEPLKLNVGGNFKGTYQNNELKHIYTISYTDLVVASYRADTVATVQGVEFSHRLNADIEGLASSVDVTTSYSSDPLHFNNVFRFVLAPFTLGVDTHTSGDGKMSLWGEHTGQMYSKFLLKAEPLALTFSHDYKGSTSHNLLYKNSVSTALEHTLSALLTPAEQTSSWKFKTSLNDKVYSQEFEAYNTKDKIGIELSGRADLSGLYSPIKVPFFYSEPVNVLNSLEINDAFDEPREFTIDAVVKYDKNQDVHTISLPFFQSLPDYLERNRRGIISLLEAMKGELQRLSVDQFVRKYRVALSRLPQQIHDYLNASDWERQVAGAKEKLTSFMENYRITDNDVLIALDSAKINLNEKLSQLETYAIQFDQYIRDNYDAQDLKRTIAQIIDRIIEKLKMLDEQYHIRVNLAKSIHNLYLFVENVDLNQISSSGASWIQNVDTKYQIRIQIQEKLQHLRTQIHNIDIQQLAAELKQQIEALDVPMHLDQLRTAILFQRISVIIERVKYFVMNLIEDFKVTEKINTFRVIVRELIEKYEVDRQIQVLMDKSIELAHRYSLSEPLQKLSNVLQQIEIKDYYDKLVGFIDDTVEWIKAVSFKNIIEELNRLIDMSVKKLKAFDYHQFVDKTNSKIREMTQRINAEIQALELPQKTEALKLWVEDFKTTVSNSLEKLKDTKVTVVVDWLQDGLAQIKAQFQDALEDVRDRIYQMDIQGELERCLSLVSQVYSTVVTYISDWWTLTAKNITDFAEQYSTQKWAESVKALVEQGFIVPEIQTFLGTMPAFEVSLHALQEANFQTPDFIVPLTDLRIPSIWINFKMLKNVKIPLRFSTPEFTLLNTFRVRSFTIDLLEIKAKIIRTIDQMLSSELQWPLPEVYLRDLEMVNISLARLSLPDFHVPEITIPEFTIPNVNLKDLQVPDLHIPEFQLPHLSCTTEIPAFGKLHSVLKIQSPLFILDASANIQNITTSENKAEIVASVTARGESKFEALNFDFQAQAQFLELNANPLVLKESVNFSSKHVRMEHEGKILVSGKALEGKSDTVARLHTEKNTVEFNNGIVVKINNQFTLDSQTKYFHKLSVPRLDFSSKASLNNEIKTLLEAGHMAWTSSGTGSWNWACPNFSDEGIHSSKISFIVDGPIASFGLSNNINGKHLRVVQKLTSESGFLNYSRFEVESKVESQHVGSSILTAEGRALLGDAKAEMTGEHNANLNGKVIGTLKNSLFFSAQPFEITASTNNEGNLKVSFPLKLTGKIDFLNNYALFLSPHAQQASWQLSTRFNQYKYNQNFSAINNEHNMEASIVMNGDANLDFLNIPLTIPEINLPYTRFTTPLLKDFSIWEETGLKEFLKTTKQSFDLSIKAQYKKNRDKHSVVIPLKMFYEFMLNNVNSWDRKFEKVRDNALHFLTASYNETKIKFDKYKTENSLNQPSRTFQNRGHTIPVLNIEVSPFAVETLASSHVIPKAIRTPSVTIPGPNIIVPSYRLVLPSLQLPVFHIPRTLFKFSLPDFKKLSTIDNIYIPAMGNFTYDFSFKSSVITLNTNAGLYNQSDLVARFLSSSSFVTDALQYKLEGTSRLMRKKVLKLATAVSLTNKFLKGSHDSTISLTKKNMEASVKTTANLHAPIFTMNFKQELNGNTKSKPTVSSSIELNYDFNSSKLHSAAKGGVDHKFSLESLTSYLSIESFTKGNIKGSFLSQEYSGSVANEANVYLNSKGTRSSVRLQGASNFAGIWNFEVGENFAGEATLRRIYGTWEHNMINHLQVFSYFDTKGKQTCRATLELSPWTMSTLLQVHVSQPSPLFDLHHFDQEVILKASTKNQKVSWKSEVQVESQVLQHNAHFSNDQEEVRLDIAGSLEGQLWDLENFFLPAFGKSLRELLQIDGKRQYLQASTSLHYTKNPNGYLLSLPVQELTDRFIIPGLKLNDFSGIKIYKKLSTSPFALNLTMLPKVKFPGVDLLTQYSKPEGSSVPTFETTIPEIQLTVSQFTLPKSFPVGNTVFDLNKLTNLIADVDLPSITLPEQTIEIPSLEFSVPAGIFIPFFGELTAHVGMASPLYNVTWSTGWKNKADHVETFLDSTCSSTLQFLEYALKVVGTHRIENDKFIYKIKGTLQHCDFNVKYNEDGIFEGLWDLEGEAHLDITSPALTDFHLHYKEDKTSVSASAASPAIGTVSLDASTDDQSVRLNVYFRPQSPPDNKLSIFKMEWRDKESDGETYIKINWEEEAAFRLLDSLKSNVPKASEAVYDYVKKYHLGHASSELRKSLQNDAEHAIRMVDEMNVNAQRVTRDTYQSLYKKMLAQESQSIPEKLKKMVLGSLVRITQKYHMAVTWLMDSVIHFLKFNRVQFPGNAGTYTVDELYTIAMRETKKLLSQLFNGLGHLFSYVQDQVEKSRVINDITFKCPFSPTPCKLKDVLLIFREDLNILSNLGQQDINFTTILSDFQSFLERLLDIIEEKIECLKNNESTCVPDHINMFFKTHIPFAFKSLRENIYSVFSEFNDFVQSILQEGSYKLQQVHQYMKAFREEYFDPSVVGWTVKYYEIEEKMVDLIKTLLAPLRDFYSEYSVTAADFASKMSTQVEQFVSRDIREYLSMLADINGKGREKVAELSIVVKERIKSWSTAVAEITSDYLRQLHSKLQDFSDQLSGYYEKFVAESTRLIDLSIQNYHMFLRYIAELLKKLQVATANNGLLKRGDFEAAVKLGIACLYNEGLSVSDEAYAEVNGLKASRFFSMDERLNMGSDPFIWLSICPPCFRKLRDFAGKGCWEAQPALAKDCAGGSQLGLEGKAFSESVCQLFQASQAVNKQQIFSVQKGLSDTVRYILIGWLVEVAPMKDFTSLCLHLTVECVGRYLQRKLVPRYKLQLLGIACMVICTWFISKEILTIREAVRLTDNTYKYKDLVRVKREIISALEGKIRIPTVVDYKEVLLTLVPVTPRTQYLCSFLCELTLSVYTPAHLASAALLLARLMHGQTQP
UniProt P62836: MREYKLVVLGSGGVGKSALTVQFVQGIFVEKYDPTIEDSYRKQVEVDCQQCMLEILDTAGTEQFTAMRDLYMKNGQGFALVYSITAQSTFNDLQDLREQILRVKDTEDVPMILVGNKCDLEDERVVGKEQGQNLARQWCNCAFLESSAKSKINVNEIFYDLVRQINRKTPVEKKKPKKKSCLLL
UniProt Q5XIH7: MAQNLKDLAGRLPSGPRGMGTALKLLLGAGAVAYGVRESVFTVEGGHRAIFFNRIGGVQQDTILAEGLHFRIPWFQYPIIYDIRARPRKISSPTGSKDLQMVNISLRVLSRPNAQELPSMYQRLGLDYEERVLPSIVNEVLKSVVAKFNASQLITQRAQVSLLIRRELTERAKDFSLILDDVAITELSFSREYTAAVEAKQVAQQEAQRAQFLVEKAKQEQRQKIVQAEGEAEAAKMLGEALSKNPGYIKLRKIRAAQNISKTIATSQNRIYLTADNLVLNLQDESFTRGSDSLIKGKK
UniProt Q641Y2, residues 34-463: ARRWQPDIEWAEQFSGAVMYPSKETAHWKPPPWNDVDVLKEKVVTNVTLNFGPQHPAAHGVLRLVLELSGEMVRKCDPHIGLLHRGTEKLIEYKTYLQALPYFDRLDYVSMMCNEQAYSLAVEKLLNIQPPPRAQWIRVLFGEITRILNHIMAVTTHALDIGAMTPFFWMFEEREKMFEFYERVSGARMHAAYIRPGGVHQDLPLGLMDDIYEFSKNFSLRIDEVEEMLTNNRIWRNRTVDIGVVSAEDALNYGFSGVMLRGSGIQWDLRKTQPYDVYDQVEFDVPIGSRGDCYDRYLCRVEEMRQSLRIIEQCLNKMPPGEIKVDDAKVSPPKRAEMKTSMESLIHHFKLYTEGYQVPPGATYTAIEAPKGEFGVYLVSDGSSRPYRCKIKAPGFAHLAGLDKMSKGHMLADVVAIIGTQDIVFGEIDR

To fix the notation:
B1: Na+/K+/2Cl- cotransporter NKCC2 (solute carrier family 12 member 1) (protein, UniProt P55016 1-1095)
chain: MSVNIPSNSVPSGASRFQVHVINEGHGSGAAMSDSTDPPHYEETSFGDEAQNRLKISFRPGNQECYENFLQTGETAKTDTTFHAYDSHTNTYYLQTFGHNTMDAVPKIEYYRNTGSVSGPKVNRPSLQEIHEQLAKNVAVAPGSADRVANGDGMPGDEQAENKEEDVTGVVKFGWVKGVLVRCMLNIWGVMLFIRLSWIVGEAGIGLGVIIIGLSVVVTTLTGISMSAICTNGVVRGGGAYYLISRSLGPEFGGSIGLIFRFANAVRVAMYVVGFAETVVDLLKESDSMMVDPTNDIRIIGSITVVILLGISVAGMEWEAKAQVILLVILLIGIANFFIGTVIPSNNEKKSRGFFNYQASIFAENFGPSFTEGEGFFSVFAIFFPAATGILAGANISGDLEDPQDAIPRGTMLAIFITTVAYIGVAICVRACVVRDATGSMNDTVVSGMNCNGSAACGLGYDFSRCQHEPCQYGLMNNFQVMSMVSGFGPLITAGIFSATLSSALASLVSAPKVFQALCKDNIFKGLQFFAKGYGKNNEPLRGYFLTFVIAMAFILIAELNVIAPIISNFFLASYALINFSCFHASYAKSPGWRPAYGIYNMWVSLFGAILCCAVMFVINWWAAVITYVIELFLYIYVTYKKPDVNWGSSTQALSYVSALDNALELTTVEDHVKNFRPQCIVLTGGPMTRPALLDITHAFTKNSGLCICCEVFVGPRKLCVKEMNSGMAKKQAWLMKNKIKAFYAAVAADCFRDGVRSLLQASGLGRMKPNTLVIGYKKNWRKAPLSELENYVGIIHDAFDFEIGVVIVRISQGFDISPVLQVQDELEKLEQERLALEAAIKDNDCEEGKGGIRGLFKKAGKLNITKPAPKKDSNISTIQSMHVGEFNQKLVEASAQFKKKQGKGTIDVWWLFDDGGLTLLIPYILTLRKKWKDCKLRIYVGGKINRIEEEKISMASLLSKFRIKFADIHIIGDINIKPNKESWKVFEEMIEPYRLHESHKDLTTAEKLKRESPWKITDAELEAVKEKSYRQVRLNELLQEHSRAANLIVLSLPVARKGSISDLLYMAWLEILTKNLPPVLLVRGNHKNVLTFYS
B2: Annexin A1 (protein, UniProt P07150 1-346)
chain: MAMVSEFLKQACYIEKQEQEYVQAVKSYKGGPGSAVSPYPSFNPSSDVAALHKAIMVKGVDEATIIDILTKRTNAQRQQIKAAYLQETGKPLDETLKKALTGHLEEVVLAMLKTPAQFDADELRAAMKGLGTDEDTLIEILTTRSNQQIREITRVYREELKRDLAKDITSDTSGDFRNALLALAKGDRCEDMSVNQDLADTDARALYEAGERRKGTDVNVFNTILTTRSYPHLRKVFQNYRKYSQHDMNKALDLELKGDIEKCLTTIVKCATSTPAFFAEKLYEAMKGAGTRHKTLIRIMVSRSEIDMNEIKVFYQKKYGIPLCQAILDETKGDYEKILVALCGGN
B3: isocitrate dehydrogenase [NAD] subunit γ 1 (IDHG1) (protein, UniProt P41565 40-393)
chain: SSQQTIPPSAKYGGRHTVTMIPGDGIGPELMLHVKSVFRHACVPVDFEEVHVSSNADEEDIRNAIMAIRRNRVALKGNIETNHDLPPSHKSRNNILRTSLDLYANVIHCKSLPGVVTRHKDIDILIVRENTEGEYSSLEHESVAGVVESLKIITKAKSLRIAEYAFKLAQESGRKKVTAVHKANIMKLGDGLFLQCCREVAARYPQITFDSMIVDNTTMQLVSRPQQFDVMVMPNLYGNIVNNVCAGLVGGPGLVAGANYGHVYAVFETATRNTGKSIANKNIANPTATLLASCMMLDHLKLHSYATSIRKAVLASMDNENMHTPDIGGQGTTSQAIQDIIRHIRIINGRAVEA
B4: N-acetyltransferase 8 (NAT8) (protein, UniProt Q9QXT3 1-222)
chain: MASFHIRQFQERDYEQVVDMFSRGMKEHIPTAFRHLLLLPRTLLLLLGVPLALVLVSGSWLLAVVCIFFLLPFLWFLAGQPWKNYVSKCLHTDMADITKSYLSDRGSGFWVAESGGQIVGTVGALPVKDPPSGRKQLQLFRLSVSSQHRGQGIAKALVRTVLQFARDQGYTDVVLVTGLLQQGAVTLYYSMGFQKTGESFMDILTWLVDVSLIHFIYPLPSS

These are yes or no findings as the source states them, for the method shown. In cells and extracts the contact can be indirect. These calls come from enrichment with a bait or labelling near it, and not all partners need be listed.

This experiment addresses GST-full-length ACTN4 (glutathione-S-transferase-fusion actinin-4) (UniProt O43707). Nature of the experiment: affinity purification with mass spectrometry; purified GST-ACTN4 or GST alone incubated with rat medullary TAL lysate (100 µg, precleared with glutathione beads) overnight at 4°C; isolated on glutathione-agarose beads; washed three times low-salt (0.01 mM NaCl) and three times high-salt (500 mM NaCl); LC-MS/MS; only the target purified.
Take “Annexin A2 (ANXN2) (from UniProt Q07936 1-339)”: the binding entry was “binds”.
On to “apolipoprotein B (APOB) (from UniProt Q7TMA5 28-4743)”, for which the binding result was “binds”.
The value for “Ras-related protein Rap-1A (RAP1A) (from UniProt P62836 1-184)” was “binds”.
In the case of “prohibitin-2 (PHB2) (from UniProt Q5XIH7 1-299)” it was “binds”; in that of “cofilin-1 (CFL1) (from UniProt P45592 1-166)”, “binds”; in that of “NADH dehydrogenase iron-sulfur protein 2 (NDUS2) (from UniProt Q641Y2 34-463)”, “binds”.
In the case of B1 it was “binds”.
Consider B2, for which the binding result is “binds”.
In the case of B3 it was “binds”; in that of B4, “binds”.
